The data set in a line: general procedure: peptide synthesis; PyBOP/DIPEA or NHS activated ester. Particulars: conjugation step.

On to E[c(RGDyK)]2, for which the conjugation yield came out at 50%. Further, under “254 nm”, the “final HPLC purity” value came out at 96.8%.

The values above are taken from PMC6269693 (Molecules, 2013).
